Experimental findings from the supplement of paper PMC12067093, “Discovery and optimisation of a covalent ligand for TRIM25 and its application to targeted protein ubiquitination” (Chemical Science, 2025) are described below.

By UniProt entry, the sequences of proteins in these tests, tags left out. Where a name states a change or a piece, a line headed by the entry shows the natural chain unless it says otherwise.
UniProt Q9P2Y5: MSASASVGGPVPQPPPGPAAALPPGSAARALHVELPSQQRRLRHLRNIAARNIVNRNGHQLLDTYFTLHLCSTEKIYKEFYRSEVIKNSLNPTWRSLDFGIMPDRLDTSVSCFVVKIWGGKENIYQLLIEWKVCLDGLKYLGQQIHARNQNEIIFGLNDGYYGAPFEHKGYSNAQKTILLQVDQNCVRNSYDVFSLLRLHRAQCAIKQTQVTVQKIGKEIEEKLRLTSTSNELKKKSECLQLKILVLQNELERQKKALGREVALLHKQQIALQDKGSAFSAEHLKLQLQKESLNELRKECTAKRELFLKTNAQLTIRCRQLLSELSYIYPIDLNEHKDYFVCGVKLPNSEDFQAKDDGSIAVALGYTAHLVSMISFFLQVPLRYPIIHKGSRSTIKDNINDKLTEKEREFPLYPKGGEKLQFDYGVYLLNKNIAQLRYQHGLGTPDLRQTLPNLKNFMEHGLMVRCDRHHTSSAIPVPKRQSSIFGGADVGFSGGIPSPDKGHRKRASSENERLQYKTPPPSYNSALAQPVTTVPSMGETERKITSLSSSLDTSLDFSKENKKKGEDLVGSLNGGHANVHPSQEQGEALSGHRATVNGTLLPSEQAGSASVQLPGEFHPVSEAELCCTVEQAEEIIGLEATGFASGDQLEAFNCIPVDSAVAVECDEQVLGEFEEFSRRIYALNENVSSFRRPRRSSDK
UniProt P55072, whole entry, looked up: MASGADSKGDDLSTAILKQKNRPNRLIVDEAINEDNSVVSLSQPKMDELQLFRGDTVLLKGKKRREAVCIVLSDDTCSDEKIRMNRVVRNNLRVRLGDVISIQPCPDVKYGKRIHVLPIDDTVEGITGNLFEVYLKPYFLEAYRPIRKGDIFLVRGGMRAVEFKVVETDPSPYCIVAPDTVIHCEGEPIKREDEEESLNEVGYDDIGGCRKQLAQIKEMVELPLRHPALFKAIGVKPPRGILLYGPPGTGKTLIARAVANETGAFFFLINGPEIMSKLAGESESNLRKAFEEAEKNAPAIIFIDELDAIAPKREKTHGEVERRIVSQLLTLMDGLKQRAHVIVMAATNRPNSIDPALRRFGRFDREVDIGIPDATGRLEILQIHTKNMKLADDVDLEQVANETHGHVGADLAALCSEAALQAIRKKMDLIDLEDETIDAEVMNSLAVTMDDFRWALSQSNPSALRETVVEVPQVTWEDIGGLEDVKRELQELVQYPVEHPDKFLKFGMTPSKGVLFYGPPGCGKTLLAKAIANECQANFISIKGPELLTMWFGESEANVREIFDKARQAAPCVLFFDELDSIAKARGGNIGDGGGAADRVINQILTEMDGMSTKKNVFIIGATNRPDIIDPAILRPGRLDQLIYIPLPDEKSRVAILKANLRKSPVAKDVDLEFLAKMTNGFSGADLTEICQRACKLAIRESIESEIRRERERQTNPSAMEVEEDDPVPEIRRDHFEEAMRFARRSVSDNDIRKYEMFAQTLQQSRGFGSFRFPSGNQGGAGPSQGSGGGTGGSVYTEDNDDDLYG
UniProt Q9UN37: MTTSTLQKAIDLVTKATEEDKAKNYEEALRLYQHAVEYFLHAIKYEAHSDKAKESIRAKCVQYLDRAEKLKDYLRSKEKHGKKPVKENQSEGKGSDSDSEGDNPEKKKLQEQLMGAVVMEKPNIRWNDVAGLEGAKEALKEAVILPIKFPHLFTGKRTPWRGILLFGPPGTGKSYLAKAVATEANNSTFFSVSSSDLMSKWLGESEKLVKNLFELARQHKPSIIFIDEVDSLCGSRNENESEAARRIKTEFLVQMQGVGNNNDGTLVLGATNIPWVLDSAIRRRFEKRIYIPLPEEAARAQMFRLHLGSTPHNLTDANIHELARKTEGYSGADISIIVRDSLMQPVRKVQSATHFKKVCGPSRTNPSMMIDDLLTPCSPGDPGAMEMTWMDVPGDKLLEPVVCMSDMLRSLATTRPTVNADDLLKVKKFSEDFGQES
UniProt Q69YN4: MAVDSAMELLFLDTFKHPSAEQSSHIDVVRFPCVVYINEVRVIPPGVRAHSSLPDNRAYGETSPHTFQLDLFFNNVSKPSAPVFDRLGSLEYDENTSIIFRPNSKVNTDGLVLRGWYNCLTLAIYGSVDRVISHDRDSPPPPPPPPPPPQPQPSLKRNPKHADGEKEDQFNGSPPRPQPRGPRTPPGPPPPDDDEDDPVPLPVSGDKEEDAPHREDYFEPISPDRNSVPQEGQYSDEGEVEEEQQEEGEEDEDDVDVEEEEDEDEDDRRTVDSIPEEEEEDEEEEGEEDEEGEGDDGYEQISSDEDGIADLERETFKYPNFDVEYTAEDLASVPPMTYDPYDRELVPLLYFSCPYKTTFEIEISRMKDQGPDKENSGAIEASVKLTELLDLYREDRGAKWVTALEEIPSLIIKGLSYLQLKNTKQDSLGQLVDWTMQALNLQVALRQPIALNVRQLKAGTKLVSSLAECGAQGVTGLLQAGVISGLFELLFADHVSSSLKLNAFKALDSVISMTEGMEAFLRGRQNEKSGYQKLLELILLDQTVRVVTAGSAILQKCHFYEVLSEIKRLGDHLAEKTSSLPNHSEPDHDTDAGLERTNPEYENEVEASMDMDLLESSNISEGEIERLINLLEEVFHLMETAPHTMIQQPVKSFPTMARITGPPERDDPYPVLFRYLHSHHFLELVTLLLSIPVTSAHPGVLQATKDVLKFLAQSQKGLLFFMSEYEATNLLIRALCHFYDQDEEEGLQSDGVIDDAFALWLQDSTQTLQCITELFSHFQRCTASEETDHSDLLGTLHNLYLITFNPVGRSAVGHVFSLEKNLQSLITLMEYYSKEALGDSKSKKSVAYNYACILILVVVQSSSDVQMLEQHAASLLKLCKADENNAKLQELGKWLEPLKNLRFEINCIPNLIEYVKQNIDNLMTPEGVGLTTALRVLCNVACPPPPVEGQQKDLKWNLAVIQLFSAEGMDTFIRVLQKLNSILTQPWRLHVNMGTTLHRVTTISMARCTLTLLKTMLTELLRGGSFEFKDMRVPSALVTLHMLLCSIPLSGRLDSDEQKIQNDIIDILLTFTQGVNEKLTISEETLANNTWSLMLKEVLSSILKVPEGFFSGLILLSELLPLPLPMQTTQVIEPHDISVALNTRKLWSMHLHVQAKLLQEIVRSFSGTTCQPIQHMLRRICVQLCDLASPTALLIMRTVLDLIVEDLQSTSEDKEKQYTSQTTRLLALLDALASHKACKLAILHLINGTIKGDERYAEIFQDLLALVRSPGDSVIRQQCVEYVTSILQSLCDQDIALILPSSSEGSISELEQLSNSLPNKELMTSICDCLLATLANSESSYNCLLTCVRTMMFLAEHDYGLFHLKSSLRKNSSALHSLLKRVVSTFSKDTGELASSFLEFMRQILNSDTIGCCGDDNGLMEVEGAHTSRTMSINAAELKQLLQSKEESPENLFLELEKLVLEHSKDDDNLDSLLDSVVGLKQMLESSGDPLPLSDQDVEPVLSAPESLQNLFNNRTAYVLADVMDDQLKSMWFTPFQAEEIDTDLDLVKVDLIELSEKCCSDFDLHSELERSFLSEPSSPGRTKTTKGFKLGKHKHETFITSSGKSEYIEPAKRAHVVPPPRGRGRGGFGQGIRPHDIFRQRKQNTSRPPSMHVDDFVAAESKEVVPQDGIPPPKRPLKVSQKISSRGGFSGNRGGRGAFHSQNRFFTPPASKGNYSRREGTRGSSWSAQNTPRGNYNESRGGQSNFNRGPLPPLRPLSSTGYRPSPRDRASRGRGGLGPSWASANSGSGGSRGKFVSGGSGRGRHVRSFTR
UniProt Q8TED0: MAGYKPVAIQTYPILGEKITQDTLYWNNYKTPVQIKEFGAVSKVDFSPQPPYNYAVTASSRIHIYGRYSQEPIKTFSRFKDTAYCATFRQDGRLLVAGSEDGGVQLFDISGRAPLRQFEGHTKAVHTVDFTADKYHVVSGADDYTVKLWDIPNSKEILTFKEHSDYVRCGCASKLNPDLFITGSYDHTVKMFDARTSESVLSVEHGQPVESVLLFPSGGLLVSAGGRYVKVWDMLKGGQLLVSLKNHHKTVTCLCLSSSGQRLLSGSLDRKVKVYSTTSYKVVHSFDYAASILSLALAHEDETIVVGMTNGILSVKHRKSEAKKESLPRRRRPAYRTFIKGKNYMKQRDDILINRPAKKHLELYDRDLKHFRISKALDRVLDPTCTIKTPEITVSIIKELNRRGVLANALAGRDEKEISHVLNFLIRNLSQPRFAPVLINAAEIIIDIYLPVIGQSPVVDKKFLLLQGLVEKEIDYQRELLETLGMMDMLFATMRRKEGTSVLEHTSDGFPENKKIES
UniProt Q96JH7: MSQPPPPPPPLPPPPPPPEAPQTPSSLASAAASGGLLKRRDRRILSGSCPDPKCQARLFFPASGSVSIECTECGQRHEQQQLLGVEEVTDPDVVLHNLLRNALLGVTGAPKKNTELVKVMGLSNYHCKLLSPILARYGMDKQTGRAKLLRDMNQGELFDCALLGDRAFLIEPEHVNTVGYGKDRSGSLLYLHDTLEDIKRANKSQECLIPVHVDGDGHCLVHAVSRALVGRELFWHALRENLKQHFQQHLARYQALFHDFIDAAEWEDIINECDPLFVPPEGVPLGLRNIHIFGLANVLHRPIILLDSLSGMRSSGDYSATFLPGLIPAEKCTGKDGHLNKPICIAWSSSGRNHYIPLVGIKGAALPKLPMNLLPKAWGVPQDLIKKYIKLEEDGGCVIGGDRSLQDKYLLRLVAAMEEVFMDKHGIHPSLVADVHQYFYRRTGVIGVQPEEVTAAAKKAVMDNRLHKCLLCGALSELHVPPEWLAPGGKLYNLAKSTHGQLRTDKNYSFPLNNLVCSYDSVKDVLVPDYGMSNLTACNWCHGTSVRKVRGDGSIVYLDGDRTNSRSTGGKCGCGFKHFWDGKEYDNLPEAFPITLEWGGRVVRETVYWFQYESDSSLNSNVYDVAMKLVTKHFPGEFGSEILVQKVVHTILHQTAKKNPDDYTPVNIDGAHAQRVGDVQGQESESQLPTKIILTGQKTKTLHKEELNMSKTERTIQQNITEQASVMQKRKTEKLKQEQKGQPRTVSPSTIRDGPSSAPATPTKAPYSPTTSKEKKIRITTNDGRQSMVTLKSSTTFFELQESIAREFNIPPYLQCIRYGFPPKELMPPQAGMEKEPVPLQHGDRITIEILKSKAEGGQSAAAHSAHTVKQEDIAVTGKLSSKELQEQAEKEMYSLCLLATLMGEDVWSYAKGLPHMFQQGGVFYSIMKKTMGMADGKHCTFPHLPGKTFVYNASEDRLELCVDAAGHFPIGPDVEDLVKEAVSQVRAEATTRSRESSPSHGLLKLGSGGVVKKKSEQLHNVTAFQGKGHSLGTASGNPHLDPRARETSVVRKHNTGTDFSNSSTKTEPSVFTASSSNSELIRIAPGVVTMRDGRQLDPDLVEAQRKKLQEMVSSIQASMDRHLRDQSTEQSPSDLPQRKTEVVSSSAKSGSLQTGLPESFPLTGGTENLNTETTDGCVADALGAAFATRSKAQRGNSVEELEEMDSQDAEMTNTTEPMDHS
UniProt Q86Y07: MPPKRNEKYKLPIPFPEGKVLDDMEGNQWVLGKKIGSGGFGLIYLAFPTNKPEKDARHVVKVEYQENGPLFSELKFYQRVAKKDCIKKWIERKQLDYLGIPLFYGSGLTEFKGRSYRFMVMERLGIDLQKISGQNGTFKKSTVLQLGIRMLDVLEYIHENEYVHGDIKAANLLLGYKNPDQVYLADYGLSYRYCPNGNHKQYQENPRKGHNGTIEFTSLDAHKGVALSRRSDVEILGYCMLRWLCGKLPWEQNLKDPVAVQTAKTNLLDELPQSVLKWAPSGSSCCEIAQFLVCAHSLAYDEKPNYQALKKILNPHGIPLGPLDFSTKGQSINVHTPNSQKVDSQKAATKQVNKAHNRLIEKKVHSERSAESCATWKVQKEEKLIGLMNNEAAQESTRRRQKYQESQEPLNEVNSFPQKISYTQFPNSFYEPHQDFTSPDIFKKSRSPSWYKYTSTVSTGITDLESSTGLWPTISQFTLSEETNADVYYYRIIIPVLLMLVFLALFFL

Compound in this assay: CC1Cc2ccccc2N1C(=O)C1CCCN(C1)C(=O)CCl (mixture of isomers) [TRIM25 ligand 11 (diastereomer mixture)]
Briefly: probe-labelled cysteine peptide fold change vs DMSO (competition) (log2 fold change); higher = less target engagement (more negative = stronger competition). To be noted: THP-1, incubation time: 4 h.

Some of the results follow.
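Note: competitive chemoproteomic profiling in live THP-1 cells with an iodoacetamide desthiobiotin (IA-DTB) probe, comparing probe-labelled peptide intensities in compound-treated cells against DMSO-treated controls.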

In the case of “VPS13A_Q96RL7_582_CIIEAEPLEIIYDAR (UniProt Q96RL7)”, the “probe-labelled cysteine peptide fold change” value amounted to 0.149 (10 µM) and 0.211 (50 µM).
The like results for “VPS18_Q9P253_741_QCADLPEEDEELR (UniProt Q9P253)” were, in that order, 0.178 and 0.183.
“UVRAG_Q9P2Y5_71_NGHQLLDTYFTLHLCSTEK (UniProt Q9P2Y5)”: the “probe-labelled cysteine peptide fold change” value runs as follows: (10 µM) 0.00874; (50 µM) -0.106.
The like results for “VCP_P55072_105_LGDVISIQPCPDVK (UniProt P55072)” were, in that order, -0.0602 and -0.113.
The like results for “VPS4A_Q9UN37_403_LLEPVVCMSDMLR (UniProt Q9UN37)” were, in that order, -0.0613 and 0.0414.
For “VPS35_Q96QK1_653_TQCALAASK (UniProt Q96QK1)”, in that order: 0.0283 and -0.00488.
Turning to “VIRMA_Q69YN4_1559_CCSDFDLHSELER (UniProt Q69YN4)”, the “probe-labelled cysteine peptide fold change” value was 0.0763 (10 µM) and -0.104 (50 µM).
The like results for “UTP15_Q8TED0_385_VLDPTCTIK (UniProt Q8TED0)” were, in that order, 0.0337 and 0.183.
Regarding “VPS8_Q8N3P4_925_IIDCYLRDPLREEEVFNYIHNILSIPGHSAEEK (UniProt Q8N3P4)”, the “probe-labelled cysteine peptide fold change” value is 0.0571 (10 µM) and 0.0996 (50 µM).
Turning to “VCPIP1_Q96JH7_160_DMNQGELFDCALLGDR (UniProt Q96JH7)”, the “probe-labelled cysteine peptide fold change” value by setting is: (10 µM) 0.168; (50 µM) -0.264.
With “VPS13B_Q7Z7G8_1218_CSNPQVQLFYELTDIMNK (UniProt Q7Z7G8)”, the “probe-labelled cysteine peptide fold change” value runs as follows: (10 µM) 0.133; (50 µM) -0.00811.
For “VCP_P55072_209_EDEEESLNEVGYDDIGGCR (UniProt P55072)”, in that order: -0.173 and 0.219.
The like results for “VRK2_Q86Y07_239_SDVEILGYCMLR (UniProt Q86Y07)” were, in that order, 0.0676 and 0.0355.
The like results for “VCPIP1_Q96JH7_541_DVLVPDYGMSNLTACNWCHGTSVR (UniProt Q96JH7)” were, in that order, -0.171 and -0.202.
